No constants are given. Whether binding was seen depends on the method and setting. Binding seen in cells or lysates may run through a third protein. Here binding means that the protein was enriched with, or labelled near, the bait; the list need not be complete.

By UniProt entry, the sequences of proteins in these tests, tags left out.
UniProt O15392: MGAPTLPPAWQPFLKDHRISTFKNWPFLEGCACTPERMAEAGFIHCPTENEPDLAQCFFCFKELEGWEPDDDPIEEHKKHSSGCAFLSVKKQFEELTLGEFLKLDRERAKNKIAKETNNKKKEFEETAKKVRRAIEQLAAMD
UniProt P51531: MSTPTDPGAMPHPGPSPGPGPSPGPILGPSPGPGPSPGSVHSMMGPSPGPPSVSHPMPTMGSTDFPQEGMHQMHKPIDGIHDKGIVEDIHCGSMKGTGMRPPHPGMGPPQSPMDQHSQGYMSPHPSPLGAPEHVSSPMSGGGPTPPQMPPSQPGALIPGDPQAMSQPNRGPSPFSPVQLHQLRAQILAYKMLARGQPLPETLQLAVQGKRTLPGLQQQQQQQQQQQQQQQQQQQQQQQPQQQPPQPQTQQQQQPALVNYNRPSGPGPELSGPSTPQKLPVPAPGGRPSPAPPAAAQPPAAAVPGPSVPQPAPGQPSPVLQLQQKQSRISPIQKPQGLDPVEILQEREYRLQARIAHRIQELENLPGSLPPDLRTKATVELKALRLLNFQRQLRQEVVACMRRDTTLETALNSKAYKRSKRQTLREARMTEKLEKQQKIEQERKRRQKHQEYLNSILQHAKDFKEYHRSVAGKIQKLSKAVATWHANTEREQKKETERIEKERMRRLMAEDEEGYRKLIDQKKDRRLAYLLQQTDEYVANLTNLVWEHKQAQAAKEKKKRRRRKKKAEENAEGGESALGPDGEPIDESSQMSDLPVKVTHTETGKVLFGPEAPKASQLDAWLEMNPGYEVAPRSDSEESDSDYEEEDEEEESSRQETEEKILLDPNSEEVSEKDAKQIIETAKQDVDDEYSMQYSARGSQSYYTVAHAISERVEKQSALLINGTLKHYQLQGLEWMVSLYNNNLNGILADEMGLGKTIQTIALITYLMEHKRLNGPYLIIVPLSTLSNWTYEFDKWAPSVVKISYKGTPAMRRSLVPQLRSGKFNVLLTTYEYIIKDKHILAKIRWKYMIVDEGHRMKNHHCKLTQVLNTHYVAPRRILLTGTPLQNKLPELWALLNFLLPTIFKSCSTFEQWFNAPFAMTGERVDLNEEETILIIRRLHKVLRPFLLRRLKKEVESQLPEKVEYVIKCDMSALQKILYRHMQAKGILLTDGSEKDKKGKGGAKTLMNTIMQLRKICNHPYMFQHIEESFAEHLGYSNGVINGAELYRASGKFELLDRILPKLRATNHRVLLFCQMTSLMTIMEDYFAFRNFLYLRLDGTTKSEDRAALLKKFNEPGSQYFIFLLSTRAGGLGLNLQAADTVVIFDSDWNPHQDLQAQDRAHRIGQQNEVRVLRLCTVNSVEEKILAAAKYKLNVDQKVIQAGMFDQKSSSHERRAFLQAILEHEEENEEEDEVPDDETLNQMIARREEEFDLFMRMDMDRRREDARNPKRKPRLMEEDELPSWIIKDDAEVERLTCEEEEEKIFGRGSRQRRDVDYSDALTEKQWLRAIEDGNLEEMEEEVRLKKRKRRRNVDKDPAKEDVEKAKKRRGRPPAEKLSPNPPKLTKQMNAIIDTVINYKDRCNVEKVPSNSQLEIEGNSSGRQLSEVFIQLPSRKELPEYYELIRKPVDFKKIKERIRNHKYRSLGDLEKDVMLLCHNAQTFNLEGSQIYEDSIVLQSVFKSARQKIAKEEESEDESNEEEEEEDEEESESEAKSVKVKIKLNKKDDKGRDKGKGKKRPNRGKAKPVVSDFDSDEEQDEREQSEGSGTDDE
UniProt Q86U86: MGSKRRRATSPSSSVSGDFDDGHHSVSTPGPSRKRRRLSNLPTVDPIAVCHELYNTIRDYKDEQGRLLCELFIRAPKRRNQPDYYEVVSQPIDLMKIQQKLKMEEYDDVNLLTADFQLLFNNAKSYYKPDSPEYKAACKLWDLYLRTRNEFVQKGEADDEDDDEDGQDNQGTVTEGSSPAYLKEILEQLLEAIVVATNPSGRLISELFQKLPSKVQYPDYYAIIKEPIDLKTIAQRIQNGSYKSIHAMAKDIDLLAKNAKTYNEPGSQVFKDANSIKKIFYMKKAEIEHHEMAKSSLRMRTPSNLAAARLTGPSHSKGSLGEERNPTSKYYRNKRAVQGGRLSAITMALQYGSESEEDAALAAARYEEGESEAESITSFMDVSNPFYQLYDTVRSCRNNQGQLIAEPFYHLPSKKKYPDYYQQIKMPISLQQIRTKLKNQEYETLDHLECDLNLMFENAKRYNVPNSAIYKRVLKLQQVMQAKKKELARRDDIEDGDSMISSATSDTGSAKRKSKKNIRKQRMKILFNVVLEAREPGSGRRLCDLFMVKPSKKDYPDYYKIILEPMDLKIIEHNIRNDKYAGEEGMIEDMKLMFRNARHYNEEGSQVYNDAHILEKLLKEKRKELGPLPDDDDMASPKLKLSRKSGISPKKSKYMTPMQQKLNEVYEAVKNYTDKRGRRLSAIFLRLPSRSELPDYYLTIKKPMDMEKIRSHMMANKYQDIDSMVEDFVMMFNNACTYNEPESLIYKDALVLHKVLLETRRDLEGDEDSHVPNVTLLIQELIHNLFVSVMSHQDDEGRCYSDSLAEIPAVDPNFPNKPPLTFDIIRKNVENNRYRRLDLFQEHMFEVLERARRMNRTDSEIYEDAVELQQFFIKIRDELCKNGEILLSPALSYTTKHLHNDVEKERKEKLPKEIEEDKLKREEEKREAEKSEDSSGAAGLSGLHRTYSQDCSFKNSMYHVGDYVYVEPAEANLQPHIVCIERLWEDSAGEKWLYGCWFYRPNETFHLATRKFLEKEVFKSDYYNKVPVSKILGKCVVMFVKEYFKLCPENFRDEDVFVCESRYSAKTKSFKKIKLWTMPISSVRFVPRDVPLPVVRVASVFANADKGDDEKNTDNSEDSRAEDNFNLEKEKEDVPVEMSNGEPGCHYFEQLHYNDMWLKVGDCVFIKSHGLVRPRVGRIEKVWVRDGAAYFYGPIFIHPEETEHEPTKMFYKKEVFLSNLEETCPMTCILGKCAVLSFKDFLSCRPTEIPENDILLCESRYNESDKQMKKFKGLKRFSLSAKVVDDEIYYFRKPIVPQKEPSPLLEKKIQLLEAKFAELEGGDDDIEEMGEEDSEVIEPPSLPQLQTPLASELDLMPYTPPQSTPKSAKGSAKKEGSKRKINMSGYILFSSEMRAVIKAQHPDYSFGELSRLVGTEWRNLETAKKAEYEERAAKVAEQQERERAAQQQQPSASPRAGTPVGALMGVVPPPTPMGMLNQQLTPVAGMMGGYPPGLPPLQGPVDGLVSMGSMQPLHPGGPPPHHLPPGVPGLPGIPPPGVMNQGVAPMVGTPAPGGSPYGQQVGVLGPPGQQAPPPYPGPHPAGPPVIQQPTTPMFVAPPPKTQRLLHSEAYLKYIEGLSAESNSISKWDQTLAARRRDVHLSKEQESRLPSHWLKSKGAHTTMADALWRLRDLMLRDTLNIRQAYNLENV
UniProt Q92785: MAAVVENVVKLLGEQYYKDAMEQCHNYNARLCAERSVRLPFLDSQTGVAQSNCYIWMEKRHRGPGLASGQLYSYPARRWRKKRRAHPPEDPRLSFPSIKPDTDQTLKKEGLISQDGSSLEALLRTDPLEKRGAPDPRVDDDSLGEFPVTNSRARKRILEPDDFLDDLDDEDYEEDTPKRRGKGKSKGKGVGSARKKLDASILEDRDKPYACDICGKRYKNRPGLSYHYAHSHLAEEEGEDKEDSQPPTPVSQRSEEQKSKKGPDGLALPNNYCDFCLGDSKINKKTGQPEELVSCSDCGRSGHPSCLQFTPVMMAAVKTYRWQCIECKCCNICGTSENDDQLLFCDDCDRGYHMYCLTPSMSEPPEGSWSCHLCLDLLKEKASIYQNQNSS
UniProt P51532: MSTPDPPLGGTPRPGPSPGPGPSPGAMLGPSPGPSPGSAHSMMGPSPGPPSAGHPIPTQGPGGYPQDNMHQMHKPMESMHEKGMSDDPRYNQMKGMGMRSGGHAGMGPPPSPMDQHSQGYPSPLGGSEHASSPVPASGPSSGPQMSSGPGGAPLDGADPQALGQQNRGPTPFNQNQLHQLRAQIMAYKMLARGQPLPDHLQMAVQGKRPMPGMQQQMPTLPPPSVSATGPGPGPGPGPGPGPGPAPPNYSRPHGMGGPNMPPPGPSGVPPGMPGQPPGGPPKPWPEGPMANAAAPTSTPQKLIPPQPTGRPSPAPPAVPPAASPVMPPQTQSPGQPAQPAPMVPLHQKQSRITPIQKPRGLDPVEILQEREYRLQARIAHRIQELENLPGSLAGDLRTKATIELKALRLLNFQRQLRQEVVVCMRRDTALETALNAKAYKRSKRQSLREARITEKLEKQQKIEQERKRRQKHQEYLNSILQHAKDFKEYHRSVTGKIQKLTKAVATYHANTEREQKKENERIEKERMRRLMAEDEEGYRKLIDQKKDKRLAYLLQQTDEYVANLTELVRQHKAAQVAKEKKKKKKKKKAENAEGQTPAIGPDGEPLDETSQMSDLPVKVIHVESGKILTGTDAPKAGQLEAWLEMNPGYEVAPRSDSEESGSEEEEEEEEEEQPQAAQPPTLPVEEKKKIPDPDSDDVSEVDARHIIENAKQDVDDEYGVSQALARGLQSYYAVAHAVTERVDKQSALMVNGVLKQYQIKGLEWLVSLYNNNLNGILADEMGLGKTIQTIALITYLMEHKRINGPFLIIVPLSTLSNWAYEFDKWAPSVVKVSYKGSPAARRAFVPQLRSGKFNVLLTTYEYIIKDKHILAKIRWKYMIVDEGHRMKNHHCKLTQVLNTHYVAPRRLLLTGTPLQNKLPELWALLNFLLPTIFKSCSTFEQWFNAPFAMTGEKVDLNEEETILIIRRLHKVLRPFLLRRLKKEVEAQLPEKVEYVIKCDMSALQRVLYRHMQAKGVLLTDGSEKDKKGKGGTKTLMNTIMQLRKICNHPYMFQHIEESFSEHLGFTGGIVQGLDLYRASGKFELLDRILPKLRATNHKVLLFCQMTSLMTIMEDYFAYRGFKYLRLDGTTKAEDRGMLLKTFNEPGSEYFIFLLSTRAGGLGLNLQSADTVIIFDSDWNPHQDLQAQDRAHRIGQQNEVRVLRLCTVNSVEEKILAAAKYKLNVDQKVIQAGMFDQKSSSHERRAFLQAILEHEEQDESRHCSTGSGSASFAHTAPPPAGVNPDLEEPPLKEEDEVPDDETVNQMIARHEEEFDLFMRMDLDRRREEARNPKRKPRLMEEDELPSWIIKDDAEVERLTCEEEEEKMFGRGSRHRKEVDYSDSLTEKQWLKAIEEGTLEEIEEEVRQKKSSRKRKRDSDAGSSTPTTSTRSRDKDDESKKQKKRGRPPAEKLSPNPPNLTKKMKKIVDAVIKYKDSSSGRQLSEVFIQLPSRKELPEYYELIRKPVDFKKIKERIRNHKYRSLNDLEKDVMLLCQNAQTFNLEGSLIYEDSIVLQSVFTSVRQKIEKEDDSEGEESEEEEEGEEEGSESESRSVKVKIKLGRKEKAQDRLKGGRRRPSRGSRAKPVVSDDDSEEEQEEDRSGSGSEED
UniProt Q92922: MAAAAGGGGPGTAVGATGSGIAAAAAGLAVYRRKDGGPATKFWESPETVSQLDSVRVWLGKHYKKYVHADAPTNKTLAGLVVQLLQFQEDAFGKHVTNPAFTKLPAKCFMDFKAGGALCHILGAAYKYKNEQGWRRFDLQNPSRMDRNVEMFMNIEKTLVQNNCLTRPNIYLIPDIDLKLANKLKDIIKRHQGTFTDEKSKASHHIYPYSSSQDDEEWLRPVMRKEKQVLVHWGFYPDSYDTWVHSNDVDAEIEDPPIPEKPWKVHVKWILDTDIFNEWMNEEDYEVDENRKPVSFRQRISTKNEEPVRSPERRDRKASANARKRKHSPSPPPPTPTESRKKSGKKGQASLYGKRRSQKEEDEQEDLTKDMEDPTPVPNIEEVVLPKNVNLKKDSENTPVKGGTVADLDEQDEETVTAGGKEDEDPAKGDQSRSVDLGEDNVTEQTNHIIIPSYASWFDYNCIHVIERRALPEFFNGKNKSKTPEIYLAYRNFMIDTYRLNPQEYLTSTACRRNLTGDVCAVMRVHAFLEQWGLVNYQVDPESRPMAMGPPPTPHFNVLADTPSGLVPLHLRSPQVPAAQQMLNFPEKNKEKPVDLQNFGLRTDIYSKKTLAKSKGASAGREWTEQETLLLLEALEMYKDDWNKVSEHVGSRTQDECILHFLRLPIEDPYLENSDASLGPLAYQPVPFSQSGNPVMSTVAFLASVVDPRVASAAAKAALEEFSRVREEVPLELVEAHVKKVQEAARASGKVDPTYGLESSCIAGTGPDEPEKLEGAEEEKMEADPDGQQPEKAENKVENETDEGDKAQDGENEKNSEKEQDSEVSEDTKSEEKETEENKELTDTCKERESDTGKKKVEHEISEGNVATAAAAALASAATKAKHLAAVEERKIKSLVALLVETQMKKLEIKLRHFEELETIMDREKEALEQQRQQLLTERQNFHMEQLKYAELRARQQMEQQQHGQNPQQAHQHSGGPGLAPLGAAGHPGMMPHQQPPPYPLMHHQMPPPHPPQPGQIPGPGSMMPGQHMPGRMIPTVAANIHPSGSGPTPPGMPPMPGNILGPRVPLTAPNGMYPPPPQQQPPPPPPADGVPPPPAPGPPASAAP

This passage reports binding results from publication PMC11389452.

In the assay the target is survivin (human (endogenous in THP-1)) (UniProt O15392). Kind of assay: affinity purification with mass spectrometry; anti-survivin antibodies (RnD AF886) on Protein G Dynabeads cross-linked with BS3, control rabbit IgG; THP-1 cells lysed in modified RIPA buffer (25 mM Tris-HCl pH 7.4, 200 mM NaCl, 1 mM EDTA, 1% Nonidet P-40, 5% glycerol); washes with buffer containing 0.1% SDS; Coomassie-stained gel bands digested and analysed by LC-MS/MS; two independent experiments.

Consider SMARCE1 (from UniProt Q969G3 1-411), for which the binding entry is “binds”.

For SMARCD2 (from UniProt Q92925 1-531), the binding entry is given as “binds”.

With SMARCA2 (from UniProt P51531 1-1590), the binding result is listed as “binds”.

Turning to PBRM1 (from UniProt Q86U86 1-1689), the binding result is recorded as “binds”.

Take SMARCD1 (from UniProt Q96GM5 1-515): the binding result is “binds”.

As for SMARCC2 (from UniProt Q8TAQ2 1-1214), the binding result was “binds”.

For the substance DPF2 (from UniProt Q92785 1-391), the binding entry was “binds”.

SMARCA4 (from UniProt P51532 1-1647): the binding entry was “binds”.

In the case of SMARCC1 (from UniProt Q92922 1-1105), the binding result was “binds”.
